# Results published in the supplement of paper PMC7666118.
# Sequences of proteins named here, by UniProt entry; tags and fusion partners are left off. A change or cut given only in a name is not applied to a line headed by its entry.
# UniProt Q9H3C7, whole entry: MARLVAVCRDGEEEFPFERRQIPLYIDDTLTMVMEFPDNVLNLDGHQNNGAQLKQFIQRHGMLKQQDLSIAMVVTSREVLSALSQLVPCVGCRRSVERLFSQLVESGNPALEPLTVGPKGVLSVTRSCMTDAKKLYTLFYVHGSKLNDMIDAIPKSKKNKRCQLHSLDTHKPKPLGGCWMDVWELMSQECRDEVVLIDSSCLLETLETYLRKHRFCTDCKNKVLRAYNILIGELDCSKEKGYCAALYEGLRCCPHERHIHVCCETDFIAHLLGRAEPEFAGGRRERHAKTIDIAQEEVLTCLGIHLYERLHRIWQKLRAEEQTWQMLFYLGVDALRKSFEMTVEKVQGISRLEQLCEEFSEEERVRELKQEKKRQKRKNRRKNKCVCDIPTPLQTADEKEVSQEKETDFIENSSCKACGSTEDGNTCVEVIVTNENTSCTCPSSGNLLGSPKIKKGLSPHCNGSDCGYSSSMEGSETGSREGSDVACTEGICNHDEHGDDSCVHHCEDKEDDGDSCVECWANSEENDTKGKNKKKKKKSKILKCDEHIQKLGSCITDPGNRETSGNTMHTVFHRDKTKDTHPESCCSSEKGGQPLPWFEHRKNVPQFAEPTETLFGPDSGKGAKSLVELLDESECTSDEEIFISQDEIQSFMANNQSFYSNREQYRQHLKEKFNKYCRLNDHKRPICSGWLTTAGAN
# UniProt P31937: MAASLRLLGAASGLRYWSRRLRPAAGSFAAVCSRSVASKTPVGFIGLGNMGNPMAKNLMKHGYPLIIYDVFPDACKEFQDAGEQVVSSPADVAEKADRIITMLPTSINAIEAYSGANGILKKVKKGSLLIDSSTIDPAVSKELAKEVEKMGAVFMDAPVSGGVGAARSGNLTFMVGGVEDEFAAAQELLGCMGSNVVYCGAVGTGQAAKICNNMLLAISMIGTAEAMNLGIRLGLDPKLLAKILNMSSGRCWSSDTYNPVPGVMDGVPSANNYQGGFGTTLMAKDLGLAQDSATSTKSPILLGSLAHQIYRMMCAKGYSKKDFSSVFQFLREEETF
# UniProt P00390: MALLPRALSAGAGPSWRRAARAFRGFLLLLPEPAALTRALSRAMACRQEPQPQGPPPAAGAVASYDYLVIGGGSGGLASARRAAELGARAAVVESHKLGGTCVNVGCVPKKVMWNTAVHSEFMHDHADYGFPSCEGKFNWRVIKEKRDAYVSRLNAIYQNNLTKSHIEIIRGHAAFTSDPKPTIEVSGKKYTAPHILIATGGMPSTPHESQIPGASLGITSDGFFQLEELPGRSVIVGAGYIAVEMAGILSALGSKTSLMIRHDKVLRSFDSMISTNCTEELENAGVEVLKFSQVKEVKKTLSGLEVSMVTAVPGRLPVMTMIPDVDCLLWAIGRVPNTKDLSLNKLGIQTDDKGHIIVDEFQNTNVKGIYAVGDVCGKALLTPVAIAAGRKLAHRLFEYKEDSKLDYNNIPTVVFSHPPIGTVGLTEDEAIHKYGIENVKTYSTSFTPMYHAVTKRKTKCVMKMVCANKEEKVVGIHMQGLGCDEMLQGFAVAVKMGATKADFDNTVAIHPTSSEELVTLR
# UniProt O94925: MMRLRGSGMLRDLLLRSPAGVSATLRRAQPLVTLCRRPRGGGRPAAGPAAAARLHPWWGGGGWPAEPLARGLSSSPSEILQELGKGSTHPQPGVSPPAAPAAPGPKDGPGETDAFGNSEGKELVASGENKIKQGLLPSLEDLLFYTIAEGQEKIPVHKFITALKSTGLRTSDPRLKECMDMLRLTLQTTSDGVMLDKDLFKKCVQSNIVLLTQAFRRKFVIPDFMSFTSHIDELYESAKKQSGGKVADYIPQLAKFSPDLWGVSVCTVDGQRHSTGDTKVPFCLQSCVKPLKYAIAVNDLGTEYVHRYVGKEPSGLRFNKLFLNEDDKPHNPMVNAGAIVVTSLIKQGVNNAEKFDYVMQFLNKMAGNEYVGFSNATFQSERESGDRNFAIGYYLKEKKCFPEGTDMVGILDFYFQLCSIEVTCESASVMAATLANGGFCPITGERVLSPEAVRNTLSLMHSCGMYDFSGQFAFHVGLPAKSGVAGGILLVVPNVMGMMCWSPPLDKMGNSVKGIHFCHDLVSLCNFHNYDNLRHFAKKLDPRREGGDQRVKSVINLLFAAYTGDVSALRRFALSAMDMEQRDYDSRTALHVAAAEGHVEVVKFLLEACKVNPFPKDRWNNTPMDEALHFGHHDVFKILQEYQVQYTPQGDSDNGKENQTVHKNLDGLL
# UniProt O75367, whole entry: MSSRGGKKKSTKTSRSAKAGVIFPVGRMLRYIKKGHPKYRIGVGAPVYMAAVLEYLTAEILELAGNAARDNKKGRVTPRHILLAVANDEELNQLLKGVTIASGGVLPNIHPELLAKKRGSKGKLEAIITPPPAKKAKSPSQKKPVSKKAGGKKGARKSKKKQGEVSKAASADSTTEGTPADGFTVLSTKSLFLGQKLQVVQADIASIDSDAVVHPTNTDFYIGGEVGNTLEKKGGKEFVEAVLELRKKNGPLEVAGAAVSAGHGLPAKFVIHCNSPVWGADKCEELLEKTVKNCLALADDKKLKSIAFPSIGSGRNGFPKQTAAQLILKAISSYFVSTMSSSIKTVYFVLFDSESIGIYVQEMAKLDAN
# UniProt Q9UJY4: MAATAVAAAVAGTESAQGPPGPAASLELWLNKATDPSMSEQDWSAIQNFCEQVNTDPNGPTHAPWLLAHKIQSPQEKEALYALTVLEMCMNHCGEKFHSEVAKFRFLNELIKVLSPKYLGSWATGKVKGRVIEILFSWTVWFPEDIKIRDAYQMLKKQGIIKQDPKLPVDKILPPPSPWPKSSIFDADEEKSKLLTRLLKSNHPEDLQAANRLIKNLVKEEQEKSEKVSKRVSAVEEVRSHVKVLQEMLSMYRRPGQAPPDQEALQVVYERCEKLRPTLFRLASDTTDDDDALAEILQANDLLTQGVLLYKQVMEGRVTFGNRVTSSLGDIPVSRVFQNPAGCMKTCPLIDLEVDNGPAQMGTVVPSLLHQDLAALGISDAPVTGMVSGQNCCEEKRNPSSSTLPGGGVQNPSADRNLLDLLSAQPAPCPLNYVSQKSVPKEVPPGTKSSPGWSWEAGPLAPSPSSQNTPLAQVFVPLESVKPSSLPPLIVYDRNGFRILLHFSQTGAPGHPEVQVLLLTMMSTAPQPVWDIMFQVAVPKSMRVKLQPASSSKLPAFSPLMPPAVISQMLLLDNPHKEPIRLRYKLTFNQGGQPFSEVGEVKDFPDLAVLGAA
# UniProt P30679: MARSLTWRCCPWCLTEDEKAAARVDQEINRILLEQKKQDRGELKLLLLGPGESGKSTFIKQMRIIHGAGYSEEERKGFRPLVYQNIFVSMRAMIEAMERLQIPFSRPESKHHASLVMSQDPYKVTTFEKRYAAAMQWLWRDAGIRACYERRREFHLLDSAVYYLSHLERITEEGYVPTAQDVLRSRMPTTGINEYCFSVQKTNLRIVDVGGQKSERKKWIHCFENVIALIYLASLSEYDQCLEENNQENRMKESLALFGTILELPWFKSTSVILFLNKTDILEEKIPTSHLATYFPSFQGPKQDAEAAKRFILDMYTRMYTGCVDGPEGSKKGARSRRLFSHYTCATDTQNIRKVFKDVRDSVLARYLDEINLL
# UniProt Q9NQS5: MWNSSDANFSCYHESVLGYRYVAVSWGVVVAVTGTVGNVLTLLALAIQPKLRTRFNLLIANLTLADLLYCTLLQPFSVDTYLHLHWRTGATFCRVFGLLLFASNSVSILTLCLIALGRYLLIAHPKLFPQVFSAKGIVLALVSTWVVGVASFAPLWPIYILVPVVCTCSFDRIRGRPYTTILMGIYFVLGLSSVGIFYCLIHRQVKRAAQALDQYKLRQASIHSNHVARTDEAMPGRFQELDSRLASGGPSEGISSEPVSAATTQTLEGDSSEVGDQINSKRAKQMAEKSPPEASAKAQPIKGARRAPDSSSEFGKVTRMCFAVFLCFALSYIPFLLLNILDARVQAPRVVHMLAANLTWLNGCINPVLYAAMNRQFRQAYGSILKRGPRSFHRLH
# UniProt Q6PFW1: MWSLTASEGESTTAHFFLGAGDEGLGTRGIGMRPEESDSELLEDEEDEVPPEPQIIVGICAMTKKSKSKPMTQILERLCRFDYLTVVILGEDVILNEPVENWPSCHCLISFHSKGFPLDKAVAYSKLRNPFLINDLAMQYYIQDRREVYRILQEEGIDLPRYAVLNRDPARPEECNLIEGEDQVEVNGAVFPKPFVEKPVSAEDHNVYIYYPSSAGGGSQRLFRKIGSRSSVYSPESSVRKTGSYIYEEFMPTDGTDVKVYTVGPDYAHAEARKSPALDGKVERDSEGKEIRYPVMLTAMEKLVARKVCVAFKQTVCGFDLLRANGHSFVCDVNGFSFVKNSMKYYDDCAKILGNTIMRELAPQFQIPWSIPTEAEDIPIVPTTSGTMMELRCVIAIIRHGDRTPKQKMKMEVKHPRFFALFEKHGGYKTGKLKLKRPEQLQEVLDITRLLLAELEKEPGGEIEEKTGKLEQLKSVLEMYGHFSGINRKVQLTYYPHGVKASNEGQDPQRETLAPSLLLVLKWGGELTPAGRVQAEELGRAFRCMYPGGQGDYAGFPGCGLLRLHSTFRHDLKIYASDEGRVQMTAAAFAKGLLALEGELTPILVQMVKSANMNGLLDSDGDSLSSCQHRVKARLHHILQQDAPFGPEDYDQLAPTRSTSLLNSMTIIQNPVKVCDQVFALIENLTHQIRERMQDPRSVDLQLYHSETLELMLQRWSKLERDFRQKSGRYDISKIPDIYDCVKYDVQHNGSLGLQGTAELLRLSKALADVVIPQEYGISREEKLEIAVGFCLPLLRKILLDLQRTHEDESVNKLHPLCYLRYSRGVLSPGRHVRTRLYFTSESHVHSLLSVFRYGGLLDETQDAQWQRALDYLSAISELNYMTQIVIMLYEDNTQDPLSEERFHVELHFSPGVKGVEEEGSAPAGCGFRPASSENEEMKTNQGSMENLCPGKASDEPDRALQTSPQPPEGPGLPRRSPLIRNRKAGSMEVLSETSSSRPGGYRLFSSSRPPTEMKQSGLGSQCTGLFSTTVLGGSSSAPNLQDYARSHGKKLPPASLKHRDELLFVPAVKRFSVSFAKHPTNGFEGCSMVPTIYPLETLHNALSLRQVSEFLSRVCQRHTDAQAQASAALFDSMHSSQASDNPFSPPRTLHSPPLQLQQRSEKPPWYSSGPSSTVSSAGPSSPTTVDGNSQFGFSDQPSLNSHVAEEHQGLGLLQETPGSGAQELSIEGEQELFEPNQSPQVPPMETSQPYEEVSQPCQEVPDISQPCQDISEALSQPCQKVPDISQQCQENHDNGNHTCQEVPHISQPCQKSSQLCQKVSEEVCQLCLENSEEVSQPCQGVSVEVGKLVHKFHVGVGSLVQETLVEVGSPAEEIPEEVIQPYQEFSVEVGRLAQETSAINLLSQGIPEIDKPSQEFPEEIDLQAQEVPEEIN
# UniProt Q08379: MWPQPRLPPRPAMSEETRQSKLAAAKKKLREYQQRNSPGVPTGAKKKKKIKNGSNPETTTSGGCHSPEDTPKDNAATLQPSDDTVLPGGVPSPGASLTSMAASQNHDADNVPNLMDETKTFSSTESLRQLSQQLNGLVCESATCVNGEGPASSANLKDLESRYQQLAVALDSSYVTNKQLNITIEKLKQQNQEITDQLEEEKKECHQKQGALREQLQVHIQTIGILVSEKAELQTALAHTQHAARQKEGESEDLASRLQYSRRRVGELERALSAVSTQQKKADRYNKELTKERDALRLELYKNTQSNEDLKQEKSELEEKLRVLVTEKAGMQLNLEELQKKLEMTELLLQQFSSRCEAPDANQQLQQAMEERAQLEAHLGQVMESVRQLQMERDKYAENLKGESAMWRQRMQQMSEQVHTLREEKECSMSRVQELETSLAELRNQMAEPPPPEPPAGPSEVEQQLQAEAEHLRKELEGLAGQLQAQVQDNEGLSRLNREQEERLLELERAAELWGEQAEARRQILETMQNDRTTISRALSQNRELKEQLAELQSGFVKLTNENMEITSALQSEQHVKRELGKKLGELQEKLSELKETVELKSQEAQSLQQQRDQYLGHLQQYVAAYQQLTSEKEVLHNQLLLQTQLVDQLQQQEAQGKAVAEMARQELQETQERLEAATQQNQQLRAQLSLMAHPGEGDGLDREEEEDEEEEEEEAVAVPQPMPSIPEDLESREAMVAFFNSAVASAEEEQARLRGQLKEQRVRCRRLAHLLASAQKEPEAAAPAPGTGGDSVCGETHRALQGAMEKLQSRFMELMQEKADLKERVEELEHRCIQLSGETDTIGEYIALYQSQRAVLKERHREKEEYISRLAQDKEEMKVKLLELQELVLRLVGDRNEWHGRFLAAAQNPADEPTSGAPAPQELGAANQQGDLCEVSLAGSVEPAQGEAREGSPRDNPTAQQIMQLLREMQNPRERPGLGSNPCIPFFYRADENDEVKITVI
# UniProt Q9Y3E0: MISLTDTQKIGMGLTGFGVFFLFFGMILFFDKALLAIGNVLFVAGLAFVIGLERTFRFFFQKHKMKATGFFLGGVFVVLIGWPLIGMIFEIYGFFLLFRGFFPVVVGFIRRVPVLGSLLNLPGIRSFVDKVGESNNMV
# This is one part of the list.
# Compound: COc1ccc(Cn2ccc3ccc(C(=O)NO)cc32)cc1
# Experiment: dose-dependent thermal stabilisation call (2D-TPP, DLPTP, 10% FDR) (binary (1 = stabilised)); higher = stabilised by the compound
# Settings: system: HL-60 intact cells; concentration range 0.04-10 µM
row,Target,dose-dependent thermal stabilisation call
1,GINS2 (UniProt Q9Y248),inactive: 0
2,GLRX (UniProt P35754),inactive: 0
3,GGNBP2 (UniProt Q9H3C7),inactive: 0
4,GINS3 (UniProt Q9BRX5),inactive: 0
5,HIBADH (UniProt P31937),active: 1
6,GHDC (UniProt Q8N2G8),active: 1
7,GSR (UniProt P00390),inactive: 0
8,GLS (UniProt O94925),inactive: 0
9,GMNN (UniProt O75496),inactive: 0
10,H2AFY (UniProt O75367),active: 1
11,GGA2 (UniProt Q9UJY4),inactive: 0
12,GNB2 (UniProt P62879),inactive: 0
13,GNA15 (UniProt P30679),inactive: 0
14,GTF2H1 (UniProt P32780),inactive: 0
15,GPR84 (UniProt Q9NQS5),inactive: 0
16,GOT1 (UniProt P17174),inactive: 0
17,GTF2A2 (UniProt P52657),inactive: 0
18,HISPPD2A (UniProt Q6PFW1),inactive: 0
19,GNAS,inactive: 0

row,Target,dose-dependent thermal stabilisation call
1,GLTSCR2 (UniProt Q9NZM5),inactive: 0
2,GK (UniProt P32189),inactive: 0
3,HELZ (UniProt P42694),inactive: 0
4,HIST1H1C (UniProt P16403),inactive: 0
5,GTF2E1 (UniProt P29083),inactive: 0
6,GRAMD1A (UniProt Q96CP6),inactive: 0
7,HBXIP (UniProt O43504),inactive: 0
8,HERC5 (UniProt Q9UII4),inactive: 0
9,GOLGA2 (UniProt Q08379),inactive: 0
10,GSS (UniProt P48637),inactive: 0
11,GCSH (UniProt P23434),inactive: 0
12,GPN1 (UniProt Q9HCN4),inactive: 0
13,GOLT1B (UniProt Q9Y3E0),inactive: 0
14,GTF3C2 (UniProt Q8WUA4),inactive: 0
15,HEATR2 (UniProt Q86Y56),inactive: 0
16,GINS4 (UniProt Q9BRT9),inactive: 0
17,HDLBP (UniProt Q00341),inactive: 0
18,GGCX (UniProt P38435),inactive: 0

# At a glance, part of the list above.
row,Target,dose-dependent thermal stabilisation call
12,GPN1 (UniProt Q9HCN4),inactive: 0
13,GOLT1B (UniProt Q9Y3E0),inactive: 0
14,GTF3C2 (UniProt Q8WUA4),inactive: 0
